# According to the supplement of paper PMC12067093, “Discovery and optimisation of a covalent ligand for TRIM25 and its application to targeted protein ubiquitination” (Chemical Science, 2025):
# Chains of the proteins cited; added tags and fusions are not shown. Lines headed by an entry give the natural chain unless they say otherwise; changes in a name come on top.
# UniProt Q9HCD5: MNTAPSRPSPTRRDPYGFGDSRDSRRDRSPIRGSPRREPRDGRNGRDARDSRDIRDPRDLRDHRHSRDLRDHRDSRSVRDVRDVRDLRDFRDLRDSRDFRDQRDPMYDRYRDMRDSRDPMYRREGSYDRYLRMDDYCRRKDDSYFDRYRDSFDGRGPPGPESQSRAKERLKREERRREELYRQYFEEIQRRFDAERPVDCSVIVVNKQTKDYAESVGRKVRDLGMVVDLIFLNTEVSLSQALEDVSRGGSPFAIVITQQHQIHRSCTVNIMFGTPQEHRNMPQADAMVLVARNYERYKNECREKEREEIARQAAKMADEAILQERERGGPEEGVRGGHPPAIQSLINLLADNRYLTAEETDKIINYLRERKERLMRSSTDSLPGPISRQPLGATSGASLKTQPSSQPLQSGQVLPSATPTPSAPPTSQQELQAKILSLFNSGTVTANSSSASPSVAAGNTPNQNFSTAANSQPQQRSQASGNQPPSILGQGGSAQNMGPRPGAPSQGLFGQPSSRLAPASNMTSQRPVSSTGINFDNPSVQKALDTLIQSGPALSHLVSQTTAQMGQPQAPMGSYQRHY
# UniProt Q7L592: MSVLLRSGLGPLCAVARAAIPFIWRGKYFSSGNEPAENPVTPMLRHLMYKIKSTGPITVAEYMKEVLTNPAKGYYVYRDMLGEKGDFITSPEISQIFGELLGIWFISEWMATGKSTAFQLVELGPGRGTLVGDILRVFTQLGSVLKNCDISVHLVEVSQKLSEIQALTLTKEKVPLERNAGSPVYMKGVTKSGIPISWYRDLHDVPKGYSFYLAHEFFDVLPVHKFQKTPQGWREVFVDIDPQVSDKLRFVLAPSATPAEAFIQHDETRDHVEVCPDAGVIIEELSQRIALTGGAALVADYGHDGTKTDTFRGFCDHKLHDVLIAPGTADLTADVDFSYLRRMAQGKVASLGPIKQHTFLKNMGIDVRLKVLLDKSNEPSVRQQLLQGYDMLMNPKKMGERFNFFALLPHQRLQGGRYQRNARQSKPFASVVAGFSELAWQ
# UniProt Q9NX14, whole entry, looked up: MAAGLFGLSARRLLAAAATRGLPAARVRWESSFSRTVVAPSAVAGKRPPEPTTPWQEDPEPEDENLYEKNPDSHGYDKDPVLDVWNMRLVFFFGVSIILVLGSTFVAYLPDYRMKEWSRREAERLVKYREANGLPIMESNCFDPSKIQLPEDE
# UniProt P14543: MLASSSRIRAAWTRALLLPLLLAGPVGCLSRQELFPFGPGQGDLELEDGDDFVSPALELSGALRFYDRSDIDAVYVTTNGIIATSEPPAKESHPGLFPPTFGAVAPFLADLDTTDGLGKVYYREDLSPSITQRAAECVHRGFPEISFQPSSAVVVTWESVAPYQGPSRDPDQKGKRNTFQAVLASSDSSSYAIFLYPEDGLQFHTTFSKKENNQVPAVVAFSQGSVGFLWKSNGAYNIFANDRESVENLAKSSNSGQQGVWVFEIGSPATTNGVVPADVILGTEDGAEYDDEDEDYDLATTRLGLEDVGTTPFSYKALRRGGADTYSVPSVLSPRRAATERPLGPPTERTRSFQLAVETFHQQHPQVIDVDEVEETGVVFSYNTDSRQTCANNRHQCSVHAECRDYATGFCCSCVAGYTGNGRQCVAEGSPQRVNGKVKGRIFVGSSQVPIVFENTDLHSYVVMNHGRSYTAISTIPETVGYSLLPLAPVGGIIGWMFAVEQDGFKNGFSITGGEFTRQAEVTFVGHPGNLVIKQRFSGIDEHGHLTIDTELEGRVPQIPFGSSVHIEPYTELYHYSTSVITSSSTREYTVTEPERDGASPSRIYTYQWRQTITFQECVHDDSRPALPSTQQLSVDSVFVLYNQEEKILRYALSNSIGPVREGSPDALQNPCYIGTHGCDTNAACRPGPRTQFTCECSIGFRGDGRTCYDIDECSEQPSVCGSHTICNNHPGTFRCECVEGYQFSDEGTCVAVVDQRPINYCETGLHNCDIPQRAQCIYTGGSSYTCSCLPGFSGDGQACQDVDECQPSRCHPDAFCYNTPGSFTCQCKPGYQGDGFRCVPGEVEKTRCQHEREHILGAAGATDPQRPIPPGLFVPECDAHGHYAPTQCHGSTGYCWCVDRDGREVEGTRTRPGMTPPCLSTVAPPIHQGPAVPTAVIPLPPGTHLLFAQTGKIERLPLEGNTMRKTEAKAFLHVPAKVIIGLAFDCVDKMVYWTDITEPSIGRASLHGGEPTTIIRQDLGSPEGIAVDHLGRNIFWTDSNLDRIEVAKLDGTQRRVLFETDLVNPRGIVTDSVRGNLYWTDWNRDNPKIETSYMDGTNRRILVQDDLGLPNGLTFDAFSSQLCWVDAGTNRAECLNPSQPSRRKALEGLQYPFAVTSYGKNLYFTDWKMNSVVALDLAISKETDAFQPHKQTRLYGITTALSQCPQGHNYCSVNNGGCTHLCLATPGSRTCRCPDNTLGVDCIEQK
# UniProt Q6ZNB6: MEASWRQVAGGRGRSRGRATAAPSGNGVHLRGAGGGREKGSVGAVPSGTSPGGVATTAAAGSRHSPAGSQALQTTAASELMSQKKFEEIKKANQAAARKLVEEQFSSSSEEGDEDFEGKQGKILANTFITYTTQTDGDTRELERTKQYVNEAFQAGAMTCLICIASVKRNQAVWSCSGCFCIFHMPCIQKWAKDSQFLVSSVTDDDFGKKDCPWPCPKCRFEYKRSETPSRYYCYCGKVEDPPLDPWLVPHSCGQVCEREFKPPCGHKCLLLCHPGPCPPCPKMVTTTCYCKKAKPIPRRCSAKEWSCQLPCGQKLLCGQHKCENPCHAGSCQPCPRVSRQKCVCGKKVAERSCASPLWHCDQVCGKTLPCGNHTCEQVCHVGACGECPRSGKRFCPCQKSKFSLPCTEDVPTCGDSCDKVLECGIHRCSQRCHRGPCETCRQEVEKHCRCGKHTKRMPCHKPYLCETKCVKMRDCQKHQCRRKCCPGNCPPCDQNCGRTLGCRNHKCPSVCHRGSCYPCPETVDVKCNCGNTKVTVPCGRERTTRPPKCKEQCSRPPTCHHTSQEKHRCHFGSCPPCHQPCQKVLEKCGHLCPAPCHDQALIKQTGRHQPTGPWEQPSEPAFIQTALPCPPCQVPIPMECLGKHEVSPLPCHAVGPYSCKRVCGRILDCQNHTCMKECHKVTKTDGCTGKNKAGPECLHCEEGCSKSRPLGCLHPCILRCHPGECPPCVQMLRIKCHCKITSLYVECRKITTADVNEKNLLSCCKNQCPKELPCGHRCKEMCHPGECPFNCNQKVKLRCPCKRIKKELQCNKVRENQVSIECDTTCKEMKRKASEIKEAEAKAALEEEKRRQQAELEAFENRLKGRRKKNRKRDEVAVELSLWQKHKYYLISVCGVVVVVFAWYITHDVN
# UniProt Q8NHV4, whole entry, looked up: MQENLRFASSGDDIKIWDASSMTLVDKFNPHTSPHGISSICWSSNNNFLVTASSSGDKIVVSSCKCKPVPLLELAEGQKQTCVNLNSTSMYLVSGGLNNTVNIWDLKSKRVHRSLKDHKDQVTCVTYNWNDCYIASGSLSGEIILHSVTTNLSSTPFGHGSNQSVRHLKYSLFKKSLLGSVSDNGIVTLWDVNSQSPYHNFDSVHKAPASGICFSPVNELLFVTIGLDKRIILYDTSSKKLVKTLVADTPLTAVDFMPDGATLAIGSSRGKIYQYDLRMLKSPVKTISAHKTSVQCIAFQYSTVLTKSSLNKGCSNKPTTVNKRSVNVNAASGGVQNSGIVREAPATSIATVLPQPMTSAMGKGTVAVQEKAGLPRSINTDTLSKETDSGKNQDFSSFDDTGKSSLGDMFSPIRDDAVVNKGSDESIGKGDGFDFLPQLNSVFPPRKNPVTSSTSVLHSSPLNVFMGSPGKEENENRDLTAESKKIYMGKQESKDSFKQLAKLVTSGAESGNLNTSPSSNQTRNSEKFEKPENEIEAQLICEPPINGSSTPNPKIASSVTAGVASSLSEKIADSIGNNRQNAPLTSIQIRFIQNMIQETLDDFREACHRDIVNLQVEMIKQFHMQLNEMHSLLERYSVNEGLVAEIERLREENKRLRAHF
# UniProt P19878: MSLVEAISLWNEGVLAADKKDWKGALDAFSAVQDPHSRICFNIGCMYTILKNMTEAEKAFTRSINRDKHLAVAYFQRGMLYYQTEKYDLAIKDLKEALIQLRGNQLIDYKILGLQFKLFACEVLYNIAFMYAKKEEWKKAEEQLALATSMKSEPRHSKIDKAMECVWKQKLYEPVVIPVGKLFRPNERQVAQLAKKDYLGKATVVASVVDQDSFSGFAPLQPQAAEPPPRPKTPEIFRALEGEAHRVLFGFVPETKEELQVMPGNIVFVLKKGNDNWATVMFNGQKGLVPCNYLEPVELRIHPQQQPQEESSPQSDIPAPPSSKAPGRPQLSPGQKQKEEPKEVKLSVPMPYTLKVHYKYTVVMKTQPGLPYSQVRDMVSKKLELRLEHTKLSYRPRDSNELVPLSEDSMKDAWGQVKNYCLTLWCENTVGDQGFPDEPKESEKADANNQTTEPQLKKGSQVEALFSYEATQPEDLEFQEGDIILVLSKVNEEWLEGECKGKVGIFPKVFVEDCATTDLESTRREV
# UniProt Q96IV0: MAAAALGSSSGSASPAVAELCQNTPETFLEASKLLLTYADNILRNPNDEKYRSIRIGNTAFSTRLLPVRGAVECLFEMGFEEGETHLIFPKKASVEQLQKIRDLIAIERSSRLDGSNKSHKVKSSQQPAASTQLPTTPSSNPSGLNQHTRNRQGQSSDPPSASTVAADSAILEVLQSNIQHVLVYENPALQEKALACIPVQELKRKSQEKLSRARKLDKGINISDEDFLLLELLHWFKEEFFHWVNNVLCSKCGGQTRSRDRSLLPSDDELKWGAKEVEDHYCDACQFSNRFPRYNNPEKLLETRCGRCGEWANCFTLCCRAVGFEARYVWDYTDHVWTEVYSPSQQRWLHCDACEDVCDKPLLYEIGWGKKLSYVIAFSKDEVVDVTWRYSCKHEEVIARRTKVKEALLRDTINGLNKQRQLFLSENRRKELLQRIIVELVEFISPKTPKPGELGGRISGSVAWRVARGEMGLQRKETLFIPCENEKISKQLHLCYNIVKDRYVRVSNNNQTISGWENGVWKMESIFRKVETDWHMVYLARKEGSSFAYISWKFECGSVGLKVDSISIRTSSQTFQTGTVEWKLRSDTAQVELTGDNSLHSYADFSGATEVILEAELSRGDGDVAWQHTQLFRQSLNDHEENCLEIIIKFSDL
# UniProt Q12986: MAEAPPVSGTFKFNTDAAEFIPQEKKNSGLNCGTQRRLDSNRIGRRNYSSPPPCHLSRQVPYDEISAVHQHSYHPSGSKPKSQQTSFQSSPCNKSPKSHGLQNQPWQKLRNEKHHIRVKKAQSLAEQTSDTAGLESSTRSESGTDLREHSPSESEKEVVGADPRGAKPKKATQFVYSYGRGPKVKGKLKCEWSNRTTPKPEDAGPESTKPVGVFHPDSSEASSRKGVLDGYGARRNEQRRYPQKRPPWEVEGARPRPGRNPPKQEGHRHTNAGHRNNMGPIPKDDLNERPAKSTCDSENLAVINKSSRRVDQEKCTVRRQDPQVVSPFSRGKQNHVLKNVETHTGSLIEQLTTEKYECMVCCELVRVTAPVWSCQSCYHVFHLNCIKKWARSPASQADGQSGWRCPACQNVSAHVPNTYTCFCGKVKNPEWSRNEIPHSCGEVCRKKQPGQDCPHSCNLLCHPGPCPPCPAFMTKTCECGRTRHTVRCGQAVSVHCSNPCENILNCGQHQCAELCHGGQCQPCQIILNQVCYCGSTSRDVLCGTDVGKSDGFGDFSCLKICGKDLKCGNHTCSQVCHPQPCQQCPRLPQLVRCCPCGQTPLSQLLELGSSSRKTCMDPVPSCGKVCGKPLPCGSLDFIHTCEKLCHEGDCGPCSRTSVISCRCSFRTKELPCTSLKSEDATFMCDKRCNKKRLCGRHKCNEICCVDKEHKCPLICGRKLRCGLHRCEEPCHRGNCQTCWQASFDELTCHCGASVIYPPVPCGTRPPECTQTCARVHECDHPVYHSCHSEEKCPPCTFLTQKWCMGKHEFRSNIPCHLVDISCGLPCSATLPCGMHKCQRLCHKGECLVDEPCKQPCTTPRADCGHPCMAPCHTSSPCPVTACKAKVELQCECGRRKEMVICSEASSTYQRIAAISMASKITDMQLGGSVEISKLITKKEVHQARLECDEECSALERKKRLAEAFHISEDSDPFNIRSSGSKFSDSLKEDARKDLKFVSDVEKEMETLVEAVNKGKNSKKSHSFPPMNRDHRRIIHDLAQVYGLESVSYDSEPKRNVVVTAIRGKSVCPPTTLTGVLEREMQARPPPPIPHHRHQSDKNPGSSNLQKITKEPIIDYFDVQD
# This is one part of the list.
# Compound: CC1Cc2ccccc2N1C(=O)C1CCCN(C1)C(=O)CCl (mixture of isomers) [TRIM25 ligand 11 (diastereomer mixture)]
# Assay: probe-labelled cysteine peptide fold change vs DMSO (competition) (log2 fold change); higher = less target engagement (more negative = stronger competition)
# Details: THP-1, incubation time: 4 h
# 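Also: competitive chemoproteomic profiling in live THP-1 cells with an iodoacetamide desthiobiotin (IA-DTB) probe, comparing probe-labelled peptide intensities in compound-treated cells against DMSO-treated controls.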
Target,probe-labelled cysteine peptide fold change (10 µM),probe-labelled cysteine peptide fold change (50 µM)
NCOA5_Q9HCD5_301_YKNECR (UniProt Q9HCD5),-0.174,-0.0836
NEK9_Q8TD19_569_LGLNQCMSGIINHEAYHEVPYTTSFTLAK (UniProt Q8TD19),0.0603,-0.0344
NDUFAF7_Q7L592_275_DHVEVCPDAGVIIEELSQR (UniProt Q7L592),0.211,0.253
NDUFB11_Q9NX14_141_YREANGLPIMESNCFDPSK (UniProt Q9NX14),0.00525,-0.313
NID1_P14543_425_QCVAEGSPQR (UniProt P14543),0.192,0.15
NEMF_O60524_201_VLNPLLPYGPALIEHCLLENGFSGNVK (UniProt O60524),0.0627,0.0743
NFXL1_Q6ZNB6_705_AGPECLHCEEGCSK (UniProt Q6ZNB6),-0.187,-0.0758
NEDD1_Q8NHV4_607_FIQNMIQETLDDFREACHR (UniProt Q8NHV4),0.159,0.114
NEDD4_P46934_1197_IFDENELELLMCGLGDVDVNDWREHTK (UniProt P46934),-0.196,-0.108
NCF2_P19878_514_VFVEDCATTDLESTR (UniProt P19878),-0.0153,-0.00506
NCOA5_Q9HCD5_266_SCTVNIMFGTPQEHR (UniProt Q9HCD5),0.209,0.267
NECTIN2_Q92692_238_ADGVTVTCK (UniProt Q92692),0.0565,0.103
NGLY1_Q96IV0_74_GAVECLFEMGFEEGETHLIFPK (UniProt Q96IV0),-0.101,0.0423
NFX1_Q12986_852_GECLVDEPCK (UniProt Q12986),-0.0963,0.0315
